Results deposited as PubChem BioAssay AID1671195 (Yale University, 2021)
Test: 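Knockdowns that increase or decrease uptake of fluorescent LDL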 (primary screen). Cells: human Huh7 hepatoma cells. Reagents: siRNA pool against human genes, 18 nM. Timing: about 2 to 2.5 days of knockdown, then 8 h LDL uptake. Conditions: DiI-labelled LDL at 30 µg/ml for 8 h, in lipoprotein-deficient serum medium. Detection: 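Per-cell DiI-LDL intensity by automated imaging; well means scaled to the plate median and given as a robust z-score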. Scale: robust z-score: higher = more LDL uptake after knockdown. Hit rule: 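Active when two or more replicates show a robust z-score above 2 or below -2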.
The whole screen tested about 22,000 reagents; below is a random part of them. About 1,510 of all reagents (6.9%) were called active. 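Active includes knockdowns raising or lowering LDL uptake; positive z-scores mean more uptake, negative mean less.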 A number with no mark means an inactive call.

no.	gene	robust z-score, replicate 1	robust z-score, replicate 2	robust z-score, replicate 3
1	PHF20L1 (PHD finger protein 20 like 1)	-0.215	-0.115	-0.393
2	SH3BP4 (SH3 domain binding protein 4)	-1.9	-1.16	-0.299
3	AQP11 (aquaporin 11)	-0.321	-0.152	-0.22
4	RLF (RLF zinc finger)	0.0305	-0.747	0.729
5	SLC4A2	-0.794	-0.474	-0.991
6	LARP1 (La ribonucleoprotein 1, translational regulator)	0.699	1.01	0.914
7	FAM218A (family with sequence similarity 218 member A)	0.136	0.333	-0.0941
8	DNTTIP1 (deoxynucleotidyltransferase terminal interacting protein 1)	1.95 (active)	2.74	2.48
9	ANXA4 (annexin A4)	-0.588	-1.1	-0.768
10	LRRC20 (leucine rich repeat containing 20)	0.279	0.65	0.767
11	C11orf58 (chromosome 11 open reading frame 58)	-2.13	-0.0416	-1.65
12	ATP6V1E1 (ATPase H+ transporting V1 subunit E1)	0.998	1.29	0.457
13	ABHD17A (abhydrolase domain containing 17A, depalmitoylase)	0.0108	-0.386	-0.782
14	EEFSEC (eukaryotic elongation factor, selenocysteine-tRNA specific)	-2.13	-1.67	-1.82
15	DNAAF6 (dynein axonemal assembly factor 6)	-0.898	0.428	0.269
16	REC114 (REC114 meiotic recombination protein)	0.0764	0.0967	0.0729
17	KISS1 (KiSS-1 metastasis suppressor)	-0.873	-1.33	-1.01
18	LOC390877 (adenylate kinase isoenzyme 1-like)	-0.389	-0.195	-0.608
19	SLC7A8	-0.492	-0.592	-0.372
20	RPS13 (ribosomal protein S13)	-1.1	-2.28	-0.171
21	AZIN1 (antizyme inhibitor 1)	-0.627	0.229	-0.755
22	TMEM60 (transmembrane protein 60)	0.284	-0.244	-0.493
23	LINC02764 (long independently transcribed non-coding RNA 2764)	-0.0599	0.499	0.534
24	CHSY1 (chondroitin sulfate synthase 1)	-0.117	-0.191	0.179
25	HMG20B (high mobility group 20B)	-0.483	0.429	0.377
26	WBP2P1 (WW domain binding protein 2 pseudogene 1)	-0.284	-0.245	-0.775
27	CDRT15L2 (CMT1A duplicated region transcript 15 like 2)	1.45	1.58	1.26
28	TMEM252 (transmembrane protein 252)	1.18	1.47	2.04
29	PGPEP1 (pyroglutamyl-peptidase I)	1.45	1.3	1.24
30	GCNA (germ cell nuclear acidic peptidase)	1.17	1.16	1.44
31	LOC440133 (retired record)	0.664	0.16	0.594
32	ZSCAN2 (zinc finger and SCAN domain containing 2)	-0.836	-0.513	-0.143
33	RHPN2 (rhophilin Rho GTPase binding protein 2)	0.583	0.104	0.552
34	LOC441626 (retired record)	2.35	1.6	1.24
35	LOC441591 (retired record)	0.606	0.102	0.272
36	LOC388277 (retired record)	-0.632	-0.484	-0.6
37	GSX2 (GS homeobox 2)	-1.71	-0.999	-1.87
38	LOC441379 (retired record)	-0.872	-1.77	-1.2
39	SUN1 (Sad1 and UNC84 domain containing 1)	0.0371	-1.65	-0.983
40	TRIM66 (tripartite motif containing 66)	1.37	-0.311	0.964
41	CCNB1IP1 (cyclin B1 interacting protein 1)	0.927	1.23	1.42
42	SPOP (speckle type BTB/POZ protein)	0.26	0.82	0.64
43	OTOP3 (otopetrin 3)	1.16	1.6	2.26
44	BCL2L2 (BCL2 like 2)	-0.626	0.399	-0.622
45	TIMM10B (translocase of inner mitochondrial membrane 10B)	-1.75	-1.45	-1.08
46	PANX2 (pannexin 2)	-1.89	-0.971	-0.962
47	LOC400547 (retired record)	0.0209	0.3	0.207
48	KDM1B (lysine demethylase 1B)	0.653	-0.223	0.0949
49	TRHDE (thyrotropin releasing hormone degrading enzyme)	0.061	-0.377	-0.424
50	TDRD5 (tudor domain containing 5)	0.826	0.377	0.0787
51	SNX10 (sorting nexin 10)	-2.07 (active)	-2.17	-2.26
52	LARP1B (La ribonucleoprotein 1B)	-1.57	-0.427	-1.25
53	SAP30 (Sin3A associated protein 30)	-0.729	-0.615	-0.384
54	SCAF8 (SR-related CTD associated factor 8)	0.0758	-0.469	-0.106
55	CIZ1 (CDKN1A interacting zinc finger protein 1)	4.01	-2.32	0.303
56	TRIM69 (tripartite motif containing 69)	-1.72	-1.38	-1.18
57	CLDND1 (claudin domain containing 1)	0.734	0.444	0.609
58	LOC401324	0.49	0.383	0.247
59	STEAP4 (STEAP4 metalloreductase)	-1.56	-1.59	-0.817
60	LINC01124 (long independently transcribed non-coding RNA 1124)	0.163	0.362	-0.133
61	ZFP14 (ZFP14 zinc finger protein)	-0.0109	0.962	0.589
62	LOC390641 (retired record)	0.55	0.0668	0.449
63	UQCRB (ubiquinol-cytochrome c reductase binding protein)	0.813	0.225	1.25
64	LOC402695 (retired record)	2.16 (active)	2.54	1.93
65	OR3A2 (olfactory receptor family 3 subfamily A member 2)	0.46	0.529	0.796
66	LGALS4 (galectin 4)	-0.711	0.85	0.0431
67	NOTCH2 (notch receptor 2)	-1.38	-0.887	-1.4
68	NSUN3 (NOP2/Sun RNA methyltransferase 3)	-0.222	-0.514	-0.639

Ordered by “robust z-score, replicate 2” (ascending): 11 of the entries above.
gene	robust z-score, replicate 1	robust z-score, replicate 2	robust z-score, replicate 3
EEFSEC (eukaryotic elongation factor, selenocysteine-tRNA specific)	-2.13	-1.67	-1.82
KISS1 (KiSS-1 metastasis suppressor)	-0.873	-1.33	-1.01
ANXA4 (annexin A4)	-0.588	-1.1	-0.768
ABHD17A (abhydrolase domain containing 17A, depalmitoylase)	0.0108	-0.386	-0.782
LOC390877 (adenylate kinase isoenzyme 1-like)	-0.389	-0.195	-0.608
C11orf58 (chromosome 11 open reading frame 58)	-2.13	-0.0416	-1.65
REC114 (REC114 meiotic recombination protein)	0.0764	0.0967	0.0729
DNAAF6 (dynein axonemal assembly factor 6)	-0.898	0.428	0.269
LRRC20 (leucine rich repeat containing 20)	0.279	0.65	0.767
ATP6V1E1 (ATPase H+ transporting V1 subunit E1)	0.998	1.29	0.457
DNTTIP1 (deoxynucleotidyltransferase terminal interacting protein 1)	1.95 (active)	2.74	2.48
